Experimental findings from PMC8384837 are described below.

Details in all cases: yeast three-hybrid, YBZ-1, SC-Leu-His + 0.5 mM 3-AT, 4 days
Experiment [1] has as its target T1, PUM1 PUF domain R5-DCR C1007D + R1008C + Q1011R (UniProt Q14671).
T1 sequence: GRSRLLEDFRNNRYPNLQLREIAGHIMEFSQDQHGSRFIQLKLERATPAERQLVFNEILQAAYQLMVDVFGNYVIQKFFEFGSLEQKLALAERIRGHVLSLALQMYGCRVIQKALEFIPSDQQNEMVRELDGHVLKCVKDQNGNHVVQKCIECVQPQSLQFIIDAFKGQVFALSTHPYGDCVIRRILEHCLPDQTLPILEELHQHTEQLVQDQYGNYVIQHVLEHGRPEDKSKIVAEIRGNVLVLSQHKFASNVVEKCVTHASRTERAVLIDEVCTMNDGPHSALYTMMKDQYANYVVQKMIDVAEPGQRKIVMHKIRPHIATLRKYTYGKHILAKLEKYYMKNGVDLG

Experiment [2] deals with T2, PUM1 PUF domain R5-DHG C1007D + R1008H + Q1011G (UniProt Q14671).
T2 sequence: T1 sequence with C181H, R184G

Experiment [3] addresses T3, PUM1 PUF domain R5-DME C1007D + R1008M + Q1011E (UniProt Q14671).
T3 sequence: T1 sequence with C181M, R184E

Experiment [4] has as its target T4, PUM1 PUF domain R5-FKR C1007F + R1008K + Q1011R (UniProt Q14671).
T4 sequence: T1 sequence with D180F, C181K

Experiment [5] has as its target T5, PUM1 PUF domain R5-GGE C1007G + R1008G + Q1011E (UniProt Q14671).
T5 sequence: T1 sequence with D180G, C181G, R184E

In experiment [6] the target is T6, PUM1 PUF domain R5-GSE C1007G + R1008S + Q1011E (UniProt Q14671).
T6 sequence: T1 sequence with D180G, C181S, R184E

Experiment [7] deals with T7, PUM1 PUF domain R5-KER C1007K + R1008E + Q1011R (UniProt Q14671).
T7 sequence: T1 sequence with D180K, C181E

The target of experiment [8] is T8, PUM1 PUF domain R5-KNQ C1007K + R1008N (UniProt Q14671).
T8 sequence: T1 sequence with D180K, C181N, R184Q

In experiment [9] the target is T9, PUM1 PUF domain R5-LLR C1007L + R1008L + Q1011R (UniProt Q14671).
T9 sequence: T1 sequence with D180L, C181L

The target in experiment [10] is T10, PUM1 PUF domain R5-RCG C1007R + R1008C + Q1011G (UniProt Q14671).
T10 sequence: T1 sequence with D180R, R184G

In experiment [11] the target is T11, PUM1 PUF domain R5-RMM C1007R + R1008M + Q1011M (UniProt Q14671).
T11 sequence: T1 sequence with D180R, C181M, R184M

Experiment [12] addresses T12, PUM1 PUF domain R5-RNL C1007R + R1008N + Q1011L (UniProt Q14671).
T12 sequence: T1 sequence with D180R, C181N, R184L

The target in experiment [13] is T13, PUM1 PUF domain R5-RSD C1007R + R1008S + Q1011D (UniProt Q14671).
T13 sequence: T1 sequence with D180R, C181S, R184D

The target in experiment [14] is T14, PUM1 PUF domain R5-RSP C1007R + R1008S + Q1011P (UniProt Q14671).
T14 sequence: T1 sequence with D180R, C181S, R184P

For experiment [15], the target named is T15, PUM1 PUF domain R5-RVM C1007R + R1008V + Q1011M (UniProt Q14671).
T15 sequence: T1 sequence with D180R, C181V, R184M

In experiment [16] the target is T16, PUM1 PUF domain R5-SAG C1007S + R1008A + Q1011G (UniProt Q14671).
T16 sequence: T1 sequence with D180S, C181A, R184G

Experiment [17] has as its target T17, PUM1 PUF domain R5-SGC C1007S + R1008G + Q1011C (UniProt Q14671).
T17 sequence: T1 sequence with D180S, C181G, R184C

The target in experiment [18] is T18, PUM1 PUF domain R5-SGS C1007S + R1008G + Q1011S (UniProt Q14671).
T18 sequence: T1 sequence with D180S, C181G, R184S

The target in experiment [19] is T19, PUM1 PUF domain R5-SNS C1007S + R1008N + Q1011S (UniProt Q14671).
T19 sequence: T1 sequence with D180S, C181N, R184S

Experiment [20] deals with T20, PUM1 PUF domain R5-SQA C1007S + R1008Q + Q1011A (UniProt Q14671).
T20 sequence: T1 sequence with D180S, C181Q, R184A

Substitutions are numbered along the chain they refer to. The list shows a part of the results. At the low end of the ranking the order means little. Bounds are passed on as bounds.

For “GGCUAGAACUAGUGGAUCCCCCGGCGCCCGGCGGCUCGAGCCCGGGUAAGUGUAAAUAGUCUGCAUGCCGCCGGGCGCCAUGCCUGCAGGUCGACUCUAGAAAACAUG”, the binding signal (log2 enrichment (interaction score)) was under -6.6 in experiment [1]; -2.9 in experiment [2]; -3.11 in experiment [3]; -3.02 in experiment [4]; -2.95 in experiment [5]; -3.18 in experiment [6]. Further, the binding signal (log2 enrichment (interaction score)) in [7] is -2.85; in [8] it was -2.8; in experiment [9], -3.19; in experiment [10] it was -2.56; in experiment [11], -2.9; in experiment [12], -2.75. Moreover, the binding signal (log2 enrichment (interaction score)) was -3.05 in experiment [13]; -2.95 in [14]; -2.55 in experiment [15]; -3.07 in experiment [16]; -3.05 in experiment [17]; -3.61 in experiment [18]. For the same sequence, the values for the binding signal (log2 enrichment (interaction score)) in [19] and in [20] were -3.29 and -3.19, respectively.
